Only a part is listed here, and it is no random draw. The data scatter; read single values as rough.
Compound: COC(=O)/C=C/c1ccccc1 [methyl cinnamate]
Experiment: log2 ratio of iodoacetamide-alkyne labeling of the cysteine site, DMSO over compound (competition); higher = stronger covalent engagement of the cysteine by the compound, active = 1 or more
Details: 500 µM; treatment time 1 h; system: HEK293T cell lysate
Outline: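 HEK293T lysate (2 mg/mL) was incubated with electrophile (500 µM) or vehicle for 1 h at ambient temperature and then with iodoacetamide alkyne for 1 h. Labelled proteins were clicked to sCIP-TMT reagents, pooled, digested, enriched on streptavidin and measured by Orbitrap Eclipse LC-MS/MS with FAIMS, with FragPipe quantification. The per-cysteine log2 competition ratio is mean control-channel reporter intensity over mean compound-channel reporter intensity. Across three replicates with duplicate channels, cysteines quantified in only one replicate were excluded.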

Chains of the proteins cited; added tags and fusions are not shown. Lines headed by an entry give the natural chain unless they say otherwise; changes in a name come on top.
UniProt Q9H1B7, whole entry, looked up: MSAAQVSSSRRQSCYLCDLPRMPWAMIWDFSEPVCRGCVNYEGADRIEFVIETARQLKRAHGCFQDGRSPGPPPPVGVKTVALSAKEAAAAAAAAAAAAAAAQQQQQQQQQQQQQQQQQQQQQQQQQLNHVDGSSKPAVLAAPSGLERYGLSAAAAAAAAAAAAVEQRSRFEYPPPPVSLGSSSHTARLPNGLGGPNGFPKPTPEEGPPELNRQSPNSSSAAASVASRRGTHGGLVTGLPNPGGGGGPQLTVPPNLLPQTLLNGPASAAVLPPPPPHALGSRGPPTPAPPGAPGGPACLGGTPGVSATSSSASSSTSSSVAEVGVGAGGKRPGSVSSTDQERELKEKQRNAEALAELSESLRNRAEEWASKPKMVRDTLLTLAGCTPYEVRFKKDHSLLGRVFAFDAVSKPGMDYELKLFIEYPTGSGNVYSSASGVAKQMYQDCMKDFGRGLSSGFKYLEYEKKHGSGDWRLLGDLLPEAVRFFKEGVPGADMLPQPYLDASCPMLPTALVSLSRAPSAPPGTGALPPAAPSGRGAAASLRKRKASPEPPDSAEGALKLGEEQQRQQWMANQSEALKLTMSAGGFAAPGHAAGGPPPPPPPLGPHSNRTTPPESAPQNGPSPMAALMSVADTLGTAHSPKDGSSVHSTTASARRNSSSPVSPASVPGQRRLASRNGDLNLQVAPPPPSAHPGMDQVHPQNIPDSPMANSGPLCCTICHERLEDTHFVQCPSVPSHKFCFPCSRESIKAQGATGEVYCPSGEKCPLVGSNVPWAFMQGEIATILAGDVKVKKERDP
UniProt Q9H2U1: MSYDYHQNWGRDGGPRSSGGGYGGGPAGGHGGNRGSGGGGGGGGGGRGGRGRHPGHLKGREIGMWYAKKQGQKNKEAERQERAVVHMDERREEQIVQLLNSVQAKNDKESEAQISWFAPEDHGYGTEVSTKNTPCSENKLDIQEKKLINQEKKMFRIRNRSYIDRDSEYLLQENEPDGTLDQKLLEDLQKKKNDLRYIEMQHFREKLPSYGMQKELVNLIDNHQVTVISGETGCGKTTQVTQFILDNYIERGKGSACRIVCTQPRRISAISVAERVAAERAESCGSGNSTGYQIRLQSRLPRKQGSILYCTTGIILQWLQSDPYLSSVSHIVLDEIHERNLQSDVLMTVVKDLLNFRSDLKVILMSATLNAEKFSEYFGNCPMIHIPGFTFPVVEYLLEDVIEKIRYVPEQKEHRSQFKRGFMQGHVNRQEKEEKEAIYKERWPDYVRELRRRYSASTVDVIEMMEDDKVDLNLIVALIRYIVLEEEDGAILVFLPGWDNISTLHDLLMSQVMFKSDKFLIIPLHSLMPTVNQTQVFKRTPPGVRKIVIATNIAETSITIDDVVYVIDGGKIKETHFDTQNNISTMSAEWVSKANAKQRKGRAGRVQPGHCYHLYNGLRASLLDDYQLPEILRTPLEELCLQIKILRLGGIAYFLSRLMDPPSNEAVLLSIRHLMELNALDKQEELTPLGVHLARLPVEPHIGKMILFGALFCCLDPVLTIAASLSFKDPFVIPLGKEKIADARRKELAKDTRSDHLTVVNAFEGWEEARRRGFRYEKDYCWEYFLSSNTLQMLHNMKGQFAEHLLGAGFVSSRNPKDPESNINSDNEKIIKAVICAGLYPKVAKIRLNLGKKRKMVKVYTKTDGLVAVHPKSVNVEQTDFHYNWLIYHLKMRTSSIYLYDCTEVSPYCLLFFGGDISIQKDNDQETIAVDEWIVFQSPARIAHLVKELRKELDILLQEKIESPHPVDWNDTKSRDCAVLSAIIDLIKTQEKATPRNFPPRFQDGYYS
UniProt Q9BVQ7: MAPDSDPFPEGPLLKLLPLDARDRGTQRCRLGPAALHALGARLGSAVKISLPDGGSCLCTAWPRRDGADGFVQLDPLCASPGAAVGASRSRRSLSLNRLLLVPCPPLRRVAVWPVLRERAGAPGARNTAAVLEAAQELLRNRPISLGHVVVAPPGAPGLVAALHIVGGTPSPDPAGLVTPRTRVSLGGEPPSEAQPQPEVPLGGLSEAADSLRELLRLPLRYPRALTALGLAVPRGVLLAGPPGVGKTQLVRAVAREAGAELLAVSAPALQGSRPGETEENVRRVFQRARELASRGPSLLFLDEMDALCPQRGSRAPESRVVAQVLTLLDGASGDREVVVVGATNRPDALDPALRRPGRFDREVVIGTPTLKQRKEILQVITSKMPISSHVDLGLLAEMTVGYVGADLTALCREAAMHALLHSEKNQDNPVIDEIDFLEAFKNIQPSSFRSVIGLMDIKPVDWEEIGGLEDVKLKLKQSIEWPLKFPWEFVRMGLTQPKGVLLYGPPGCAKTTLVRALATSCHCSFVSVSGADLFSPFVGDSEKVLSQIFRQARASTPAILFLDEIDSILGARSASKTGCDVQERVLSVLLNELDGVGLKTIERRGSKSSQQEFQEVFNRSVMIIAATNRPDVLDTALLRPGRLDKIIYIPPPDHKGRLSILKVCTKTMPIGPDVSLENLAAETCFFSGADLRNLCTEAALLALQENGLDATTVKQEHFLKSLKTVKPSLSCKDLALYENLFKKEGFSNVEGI
UniProt Q9GZR2: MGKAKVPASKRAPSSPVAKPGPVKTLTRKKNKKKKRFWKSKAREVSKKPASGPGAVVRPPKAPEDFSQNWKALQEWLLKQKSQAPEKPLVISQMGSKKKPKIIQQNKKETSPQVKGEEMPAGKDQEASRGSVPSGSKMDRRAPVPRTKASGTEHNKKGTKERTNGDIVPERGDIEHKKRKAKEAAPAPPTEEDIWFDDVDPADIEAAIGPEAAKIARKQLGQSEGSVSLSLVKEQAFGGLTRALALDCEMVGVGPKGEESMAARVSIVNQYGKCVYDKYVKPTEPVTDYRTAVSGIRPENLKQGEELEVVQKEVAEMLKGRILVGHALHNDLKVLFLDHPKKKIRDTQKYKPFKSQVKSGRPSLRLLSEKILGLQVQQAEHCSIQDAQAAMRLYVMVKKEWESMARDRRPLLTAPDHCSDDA
UniProt Q9H074: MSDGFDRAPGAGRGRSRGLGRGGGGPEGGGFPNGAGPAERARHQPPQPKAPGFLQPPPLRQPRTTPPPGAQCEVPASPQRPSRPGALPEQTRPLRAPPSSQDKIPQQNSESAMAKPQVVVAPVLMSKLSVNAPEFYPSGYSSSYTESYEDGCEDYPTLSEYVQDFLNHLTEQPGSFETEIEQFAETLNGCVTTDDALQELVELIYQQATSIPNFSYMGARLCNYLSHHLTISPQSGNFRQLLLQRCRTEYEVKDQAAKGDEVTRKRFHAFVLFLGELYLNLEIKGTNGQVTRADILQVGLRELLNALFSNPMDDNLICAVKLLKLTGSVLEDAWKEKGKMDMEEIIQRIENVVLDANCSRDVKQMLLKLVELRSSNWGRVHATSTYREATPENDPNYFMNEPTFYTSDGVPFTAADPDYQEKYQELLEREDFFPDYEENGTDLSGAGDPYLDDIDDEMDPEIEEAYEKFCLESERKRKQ
UniProt Q9BW19: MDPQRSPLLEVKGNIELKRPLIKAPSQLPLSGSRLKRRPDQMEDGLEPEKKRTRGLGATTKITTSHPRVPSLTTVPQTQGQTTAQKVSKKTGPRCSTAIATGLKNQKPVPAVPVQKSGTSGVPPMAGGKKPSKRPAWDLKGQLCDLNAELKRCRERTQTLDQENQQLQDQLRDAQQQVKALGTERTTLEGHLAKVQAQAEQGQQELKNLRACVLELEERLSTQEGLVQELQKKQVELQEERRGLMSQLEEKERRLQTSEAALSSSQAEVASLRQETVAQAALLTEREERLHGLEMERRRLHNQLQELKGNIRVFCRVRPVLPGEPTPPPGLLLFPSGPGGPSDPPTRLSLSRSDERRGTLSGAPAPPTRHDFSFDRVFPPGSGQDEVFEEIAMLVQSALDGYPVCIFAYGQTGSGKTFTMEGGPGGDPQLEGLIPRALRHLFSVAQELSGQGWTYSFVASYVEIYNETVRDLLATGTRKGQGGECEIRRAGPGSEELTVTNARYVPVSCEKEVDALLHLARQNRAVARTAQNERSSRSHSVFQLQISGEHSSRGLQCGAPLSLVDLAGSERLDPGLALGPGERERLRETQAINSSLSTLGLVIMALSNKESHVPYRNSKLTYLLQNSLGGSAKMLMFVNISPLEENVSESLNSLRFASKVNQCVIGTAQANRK
UniProt Q9H0C8: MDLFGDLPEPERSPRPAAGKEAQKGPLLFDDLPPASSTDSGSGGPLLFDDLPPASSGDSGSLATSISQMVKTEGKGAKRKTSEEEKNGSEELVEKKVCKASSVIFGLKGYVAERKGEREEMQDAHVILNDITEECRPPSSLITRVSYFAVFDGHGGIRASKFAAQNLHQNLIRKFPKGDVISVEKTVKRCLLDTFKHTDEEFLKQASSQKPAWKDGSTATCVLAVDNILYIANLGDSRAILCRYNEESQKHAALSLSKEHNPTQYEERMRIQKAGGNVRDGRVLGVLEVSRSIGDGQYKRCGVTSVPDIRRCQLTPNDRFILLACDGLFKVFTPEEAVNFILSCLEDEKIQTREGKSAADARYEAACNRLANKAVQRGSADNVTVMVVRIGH
UniProt Q9C0F1: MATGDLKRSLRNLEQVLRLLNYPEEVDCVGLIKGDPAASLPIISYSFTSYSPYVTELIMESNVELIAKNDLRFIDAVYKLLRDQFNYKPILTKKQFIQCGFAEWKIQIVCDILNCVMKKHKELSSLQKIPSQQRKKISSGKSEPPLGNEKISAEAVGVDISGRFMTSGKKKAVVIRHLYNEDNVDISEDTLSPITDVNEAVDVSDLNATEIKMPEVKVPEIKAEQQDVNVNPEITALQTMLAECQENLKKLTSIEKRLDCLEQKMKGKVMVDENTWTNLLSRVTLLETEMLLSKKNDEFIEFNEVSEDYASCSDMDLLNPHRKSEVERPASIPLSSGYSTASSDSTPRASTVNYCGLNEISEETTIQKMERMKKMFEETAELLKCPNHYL
UniProt Q9BW92: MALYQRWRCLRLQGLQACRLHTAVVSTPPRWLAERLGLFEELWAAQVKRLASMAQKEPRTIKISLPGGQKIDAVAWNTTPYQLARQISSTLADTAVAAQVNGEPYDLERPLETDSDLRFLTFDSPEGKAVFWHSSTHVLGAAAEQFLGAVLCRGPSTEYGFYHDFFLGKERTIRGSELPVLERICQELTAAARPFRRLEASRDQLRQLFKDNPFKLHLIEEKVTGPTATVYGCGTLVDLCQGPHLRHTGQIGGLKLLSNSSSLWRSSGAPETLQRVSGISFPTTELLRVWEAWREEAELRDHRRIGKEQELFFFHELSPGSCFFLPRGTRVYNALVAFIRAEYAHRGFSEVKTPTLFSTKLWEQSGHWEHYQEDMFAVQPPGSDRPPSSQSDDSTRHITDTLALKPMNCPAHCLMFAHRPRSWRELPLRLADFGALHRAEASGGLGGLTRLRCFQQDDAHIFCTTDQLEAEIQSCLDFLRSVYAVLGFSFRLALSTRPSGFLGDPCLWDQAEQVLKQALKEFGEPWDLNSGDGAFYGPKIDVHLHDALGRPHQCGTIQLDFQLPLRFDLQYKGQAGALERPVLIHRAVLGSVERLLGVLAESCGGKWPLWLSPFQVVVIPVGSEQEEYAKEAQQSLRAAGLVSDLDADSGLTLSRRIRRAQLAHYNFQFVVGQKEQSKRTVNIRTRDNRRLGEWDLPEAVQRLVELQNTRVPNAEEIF
UniProt Q9BXJ9: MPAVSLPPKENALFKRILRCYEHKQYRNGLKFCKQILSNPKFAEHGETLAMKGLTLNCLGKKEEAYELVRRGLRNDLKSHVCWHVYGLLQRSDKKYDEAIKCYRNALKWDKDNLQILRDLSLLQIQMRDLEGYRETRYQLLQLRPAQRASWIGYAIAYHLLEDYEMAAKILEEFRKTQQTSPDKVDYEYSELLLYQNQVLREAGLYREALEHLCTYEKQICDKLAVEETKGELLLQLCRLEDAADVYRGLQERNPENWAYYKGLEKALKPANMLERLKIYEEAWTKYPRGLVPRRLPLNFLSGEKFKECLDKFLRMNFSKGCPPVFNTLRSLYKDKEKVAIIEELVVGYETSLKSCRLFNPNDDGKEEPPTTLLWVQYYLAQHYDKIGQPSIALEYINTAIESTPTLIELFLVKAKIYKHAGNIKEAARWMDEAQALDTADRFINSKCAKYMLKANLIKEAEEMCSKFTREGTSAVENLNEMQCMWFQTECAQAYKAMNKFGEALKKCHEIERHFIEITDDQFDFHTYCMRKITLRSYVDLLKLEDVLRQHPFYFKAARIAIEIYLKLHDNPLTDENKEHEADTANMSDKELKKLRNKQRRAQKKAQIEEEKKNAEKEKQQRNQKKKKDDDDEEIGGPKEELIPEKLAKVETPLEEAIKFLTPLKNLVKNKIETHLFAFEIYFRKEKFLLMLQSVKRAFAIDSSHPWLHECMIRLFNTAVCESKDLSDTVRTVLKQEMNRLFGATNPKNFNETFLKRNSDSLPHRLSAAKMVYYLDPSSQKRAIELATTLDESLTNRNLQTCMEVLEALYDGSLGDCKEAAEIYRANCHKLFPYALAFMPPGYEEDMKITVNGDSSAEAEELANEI

log2 ratio of iodoacetamide-alkyne labeling, inactive:
UniProt Q9H1B7_C504 0.307
UniProt Q9BSD7_C184 0.0965
TNKS1BP1 C631 (UniProt Q9C0C2) 0.402
GPATCH1 C534 (UniProt Q9BRR8) -0.00611
NSD3 C173 (UniProt Q9BZ95) 0.263
DHX36 C135 (UniProt Q9H2U1) 0.388
SPATA5L1 C78 (UniProt Q9BVQ7) 0.251
REXO4 C418 (UniProt Q9GZR2) 0.197
PAIP1 C222 (UniProt Q9H074) 0.459
KIFC1 C144 (UniProt Q9BW19) 0.412
UniProt Q9H1B7_C385 0.0618
ILKAP C301 (UniProt Q9H0C8) 0.0694
TANC1 C131 (UniProt Q9C0D5) 0.341
UniProt Q9C0F1_C355 0.0159
TARS2 C185 (UniProt Q9BW92) 0.201
XRN2 C159 (UniProt Q9H0D6) 0.223
UniProt Q9H019_C52 0.199
FTO C171 (UniProt Q9C0B1) 0.127
UniProt Q9BSJ8_C522 0.222
UniProt Q9BXJ9_C322 0.148
GNB1L C109 (UniProt Q9BYB4) -0.163
MRPL37 C188 (UniProt Q9BZE1) 0.144

Looked up one by one from the list above, 2 records:
log2 ratio of iodoacetamide-alkyne labeling, inactive:
REXO4 C418 (UniProt Q9GZR2) 0.197
UniProt Q9BSJ8_C522 0.222
